Data reported in patent US20070015240A1.
No constants are given. Whether binding was seen depends on the method and setting. Some results given as binding are weak or reduced against the parent protein; the word gives no strength.

Molecular target: T1, Subtilase JP170 (Bacillus sp. JP170)
T1 sequence: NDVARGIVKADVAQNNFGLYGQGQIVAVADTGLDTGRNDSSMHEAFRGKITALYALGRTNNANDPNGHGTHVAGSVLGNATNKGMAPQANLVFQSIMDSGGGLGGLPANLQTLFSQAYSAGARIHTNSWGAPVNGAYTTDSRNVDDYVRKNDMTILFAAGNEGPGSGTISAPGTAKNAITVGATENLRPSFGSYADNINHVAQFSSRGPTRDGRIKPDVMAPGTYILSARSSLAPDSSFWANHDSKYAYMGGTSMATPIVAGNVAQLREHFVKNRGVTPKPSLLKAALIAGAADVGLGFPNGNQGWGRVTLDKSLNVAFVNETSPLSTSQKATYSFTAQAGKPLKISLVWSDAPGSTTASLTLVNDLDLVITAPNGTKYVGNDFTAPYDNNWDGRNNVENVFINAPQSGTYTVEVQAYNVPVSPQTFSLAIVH
Assay: X-ray crystal structure of the complex

binding: binds
B1: CI2 inhibitor (protein, UniProt P01053 2-84, looked up)
chain: SSVEKKPEGVNTGAGDRHNLKTEWPELVGKSVEEAKKVILQDKPEAQIIVLPVGTIVTMEYRIDRVRLFVDKLDNIAQVPRVG
